Data published in the supplement of paper PMC9588786.
± gives the standard deviation of the averaged measurements. This is a selection; strong and weak results do not stand in their true shares.

System: HT-1080
Test: relative cell viability with RSL3 co-treatment (fraction of control); higher = stronger protection from RSL3-induced ferroptosis (higher viability)
Conditions: 10 µM
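Note: viability read as CCK-8 absorbance at 450 nm in cells co-exposed to the GPX4 inhibitor RSL3, relative to a 0.01% DMSO vehicle control.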

| SMILES | relative cell viability |
| --- | --- |
| Cc1ccccc1-n1c(Cn2nc(-c3cccc(O)c3)c3c(N)ncnc32)nc2cccc(C)c2c1=O | 0.64 ± 0.075 |
| Cc1nc2c(-c3cnc(N)nc3)nc(N3CCOCC3)nc2n1C(C)C | 0.583 ± 0.13 |
